Reference: PMC4117778

Molecular target: human DNA polymerase beta (polβ) (Homo sapiens) (UniProt P06746)
Assay: X-ray crystallography
Conditions: nonhydrolyzable dTTP analog (dTTP*), open conformation, template G6 = 2'-fluoro-N7-methyl-2'-deoxyguanosine (Fm7dG), 5'-phosphate on downstream primer GTCGG, kinetics (turnover only, not listed): 50 mM Tris-HCl pH 7.5, 5 mM MgCl2, 100 mM KCl, 80 nM DNA, 37°C, recombinant protein

Sequence: CCGACGTCGCATCAGC / GCTGATGCGA / GTCGG [single-nucleotide gapped DNA with templating Fm7dG (crystal)]
- binding result (Mg2+ (nucleotide-binding metal only), 2.5 Å): binds
- binding result (Mn2+ (both metals)): binds

Construct, isoform or probe ends are uncertain for at least one entry. At least one verdict rests on a figure or table, not on a statement of the authors.
